PubChem BioAssay AID1159578 | Peter MacCallum Cancer Centre – 2015

Test: 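siRNA pools altering how lymphatic endothelial cells close a scratch wound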 (primary screen)
Cells: human lymphatic endothelial cells
Reagent: siRNA pool against human genes, 40 nM
Time to read-out: 48 h after transfection
Measured: 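High-content imaging of dye-stained cells in a scratch assay measures filled wound area and nuclei per well; duplicate means given as ratio to mock and robust z-score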
Scale: migration robust z-score: higher = faster migration into the scratch; migration relative to mock: higher = more scratch area covered than mock; nuclei per well: higher = more cells in the well
Active means: 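Migration changed when robust z exceeds 2 or falls below -2 and mean nuclei number is at least 3300; otherwise not called changed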
Calls: active = migration changed; inactive = no migration change, or too few cells
Shown is one part, drawn at random, of about 18,000 reagents. About 1,030 of all reagents (5.7%) count as active. 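Inactive calls also include pools with fewer than 3300 nuclei, whose migration was not assessed.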 The raw values are shown without normalisation.

no.	Gene	migration robust z-score	migration class with cell-count check	migration relative to mock	nuclei per well, duplicate mean	call
1	BTN3A2	-1.49	migration z between -2 and 2; enough cells	0.5	5026	inactive
2	TP63	-1.77	migration z between -2 and 2; enough cells	0.46	4536	inactive
3	SGSM2	0.54	migration z between -2 and 2; enough cells	1.02	6026	inactive
4	WFDC13	-0.27	migration z between -2 and 2; enough cells	0.81	5876	inactive
5	LRFN2	-0.78	migration z between -2 and 2; enough cells	0.69	4780	inactive
6	FEN1	-1.01	migration z between -2 and 2; enough cells	0.61	5549	inactive
7	ADAD1	0.73	migration z between -2 and 2; enough cells	0.94	5779	inactive
8	IL31	-0.36	migration z between -2 and 2; enough cells	0.78	5568	inactive
9	NXNL1	-0.78	migration z between -2 and 2; enough cells	0.68	8386	inactive
10	PSMD12	-1.07	migration z between -2 and 2; enough cells	0.6	5772	inactive
11	TLCD4	1.44	migration z between -2 and 2; enough cells	1.26	6944	inactive
12	KDELR2	-0.42	migration z between -2 and 2; enough cells	0.73	6851	inactive
13	FBN3	-1.46	migration z between -2 and 2; enough cells	0.5	5352	inactive
14	GDPGP1	-1.14	under 3300 nuclei; migration not judged	0.58	3054	inactive
15	PSMC6	-2.83	migration z below -2; enough cells	0.26	4875	active
16	SARAF	-0.9	migration z between -2 and 2; enough cells	0.65	4606	inactive
17	APOL4	0.8	migration z between -2 and 2; enough cells	1.09	5302	inactive
18	PRPF18	-0.34	migration z between -2 and 2; enough cells	0.74	5866	inactive
19	C7	-0.64	migration z between -2 and 2; enough cells	0.72	5002	inactive
20	ARRB1	-1.04	migration z between -2 and 2; enough cells	0.61	5981	inactive
21	CRMP1	1.35	migration z between -2 and 2; enough cells	1.06	6390	inactive
22	OTOF	1.04	migration z between -2 and 2; enough cells	1.16	5464	inactive
23	ITIH4	1.32	migration z between -2 and 2; enough cells	1.23	5042	inactive
24	RPS8	-1.37	migration z between -2 and 2; enough cells	0.53	4401	inactive
25	OR2T35	1.12	migration z between -2 and 2; enough cells	1.17	5570	inactive
26	RAN	0.21	migration z between -2 and 2; enough cells	0.84	4958	inactive
27	RNF133	0.16	migration z between -2 and 2; enough cells	0.84	5539	inactive
28	BEGAIN	2	migration z between -2 and 2; enough cells	1.4	5678	inactive
29	DNAH7	0.18	migration z between -2 and 2; enough cells	0.84	5579	inactive
30	CAPN11	1.35	migration z between -2 and 2; enough cells	1.06	5425	inactive
31	RHOBTB2	-0.28	migration z between -2 and 2; enough cells	0.82	7504	inactive
32	ULBP1	0.76	migration z between -2 and 2; enough cells	1.08	5388	inactive
33	TRIM43	0.57	migration z between -2 and 2; enough cells	0.92	5536	inactive
34	FAM221A	-0.59	migration z between -2 and 2; enough cells	0.74	5992	inactive
35	ZNF169	1.05	migration z between -2 and 2; enough cells	1.16	6370	inactive
36	PAFAH1B3	0.44	migration z between -2 and 2; enough cells	0.89	4574	inactive
37	KCNB2	-1.01	migration z between -2 and 2; enough cells	0.61	5354	inactive
38	LPAR5	-1.4	migration z between -2 and 2; enough cells	0.53	4962	inactive
39	SIRT1	-1.06	migration z between -2 and 2; enough cells	0.6	3769	inactive
40	NKX2-3	0.91	migration z between -2 and 2; enough cells	0.98	5616	inactive
41	DOLK	-1.67	migration z between -2 and 2; enough cells	0.46	6893	inactive
42	WSB2	-0.55	migration z between -2 and 2; enough cells	0.7	5792	inactive
43	AP5Z1	-0.37	migration z between -2 and 2; enough cells	0.79	6155	inactive
44	OR5AU1	0.78	migration z between -2 and 2; enough cells	1.09	5510	inactive
45	AKR1C1	-0.39	migration z between -2 and 2; enough cells	0.73	6312	inactive
46	KIAA1586	0.03	migration z between -2 and 2; enough cells	0.89	5738	inactive
47	NHS	1.37	migration z between -2 and 2; enough cells	1.23	5741	inactive
48	SLC5A1	0.52	migration z between -2 and 2; enough cells	0.9	5336	inactive
49	PPP2R1A	0.02	migration z between -2 and 2; enough cells	0.81	5987	inactive
50	FAM133A	0.12	migration z between -2 and 2; enough cells	0.91	5920	inactive
51	HNRNPA1L2	-0.82	migration z between -2 and 2; enough cells	0.68	4866	inactive
52	CSDC2	-0.76	migration z between -2 and 2; enough cells	0.69	5406	inactive
53	TOB1	0.16	migration z between -2 and 2; enough cells	0.84	5028	inactive
54	UGT2B4	-0.24	migration z between -2 and 2; enough cells	0.76	6072	inactive
55	OR6Y1	1.91	migration z between -2 and 2; enough cells	1.38	5416	inactive
56	CDX2	0.72	migration z between -2 and 2; enough cells	0.94	6504	inactive
57	CRYBG2	-1.81	under 3300 nuclei; migration not judged	0.41	2968	inactive
58	PADI6	-1.85	migration z between -2 and 2; enough cells	0.45	4184	inactive
59	GTF2IRD1	-1.15	migration z between -2 and 2; enough cells	0.58	5558	inactive
60	HTR1F	0.03	migration z between -2 and 2; enough cells	0.81	6260	inactive
61	ECE2	0.32	migration z between -2 and 2; enough cells	0.86	5892	inactive
62	SRPRB	-0.28	migration z between -2 and 2; enough cells	0.81	4909	inactive
63	DEFB103B	-1.63	migration z between -2 and 2; enough cells	0.46	5762	inactive
64	HOXA7	0.94	migration z between -2 and 2; enough cells	0.98	5496	inactive
65	MAGEB6	1.15	migration z between -2 and 2; enough cells	1.18	5610	inactive
66	IFI30	0.18	migration z between -2 and 2; enough cells	0.84	5692	inactive
67	FGD6	1.7	migration z between -2 and 2; enough cells	1.32	5626	inactive
68	RELL2	1.74	migration z between -2 and 2; enough cells	1.34	5896	inactive
69	SCRN1	-0.06	migration z between -2 and 2; enough cells	0.8	6146	inactive
70	DNAJC1	-0.42	migration z between -2 and 2; enough cells	0.77	4720	inactive
71	GOSR1	0.18	migration z between -2 and 2; enough cells	0.93	5880	inactive
72	PCF11	0.32	migration z between -2 and 2; enough cells	0.97	5276	inactive
73	ADAR	-1.22	migration z between -2 and 2; enough cells	0.57	5470	inactive
